Laboratory results from PubChem BioAssay AID493014 (National Center for Advancing Translational Sciences (NCATS), 2011).
Some of the results follow. These are further read-outs of the screen, such as a control signal, another cell line or another target. No call is given for them. The list favours compounds with an active or inconclusive main result. Words in brackets tell the shape of the fitted curve; partial curves, single points and poor fits give uncertain potencies.

Experiment: qHTS Assay to Find Inhibitors of Chronic Active B-Cell Receptor Signaling
Conditions: ABC-DLBCL IkBa-CBG/CBR reporter, luminescence ratio (green luciferase fused to IkBa over red control in TMD8 lymphoma cells), 4 h
Procedure, shortened: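 Doxycycline induced both beetle luciferases in TMD8 lymphoma cells; IKK-driven degradation limits the IkappaBalpha-fused green signal, while red luminescence normalises for cell number and nonspecific effects. Compounds tested up to 46 uM, 4 hrs.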

[1] = measured here: CBR red luminescence, cell number
[2] = measured here: IkBa-CBG green luminescence

Row | SMILES | AC50 [1] | AC50 [2]
1 | COC(=O)CCC(=O)COc1ccccc1C#N | 10 µM [rising, partial curve] | 
2 | CC(/C=C/c1ccccc1F)=N\NC(=O)c1cccc(F)c1 | 22.4 µM [falling, partial curve] | 
3 | O=C(Nc1cccc(Oc2ccc3c(c2)C(=O)NC3=O)c1)c1ccco1 | 9.2 µM [falling, partial curve] | 
4 | COc1ccccc1C(=O)Oc1ccc2c(c1)O/C(=C\c1ccncc1)C2=O | 23.1 µM [falling, single point] | 
5 | O=C(NC1CCCCC1)c1ccc2c(c1)N(Cc1ccccc1)C(=O)c1ccccc1S2 | 28.2 µM [falling, partial curve, poor fit] | 
6 | COc1ccc(N2CCCC2)c(NC(=O)COc2ccccc2Cl)c1 | 1.78 µM [falling, full curve, poor fit] | 
7 | COc1ccccc1Nc1cc(C(=O)N2CCc3ccccc3C2)c2ccccc2n1 | 11.2 µM [falling, partial curve, poor fit] | 
8 | Cc1nc2ccc(NC(=O)N3CCOCC3)cc2s1 | 29.1 µM [rising, single point] | 
9 | CC(=O)Oc1oc(-c2ccccc2)nc1/C=N/c1ccccn1 | 7.94 µM [falling, partial curve, poor fit] | 
10 | O=C(O)COc1ccc(/C=C/c2nc3ccc([N+](=O)[O-])cc3s2)cc1 | 0.316 µM [falling, full curve] | 
11 | CCC(C)NS(=O)(=O)c1cccs1 (configuration not stated) | 0.517 µM [falling, partial curve, poor fit] | 
12 | CCc1ccc(OCC(=O)N/N=C\c2ccco2)c([N+](=O)[O-])c1 | 29.1 µM [rising, single point] | 
13 | COc1ccc2cc(-c3cc(C(=O)OCC(=O)Nc4c(C)n(C)n(-c5ccccc5)c4=O)c4ccccc4n3)ccc2c1 | 20.6 µM [rising, single point] | 
14 | Cc1ccc(S(=O)(=O)/N=C2\C=C(Nc3cccc(C(=O)O)c3)C(=O)c3ccccc32)c(C)c1 | 4.47 µM [falling, full curve, poor fit] | 
15 | CSc1nsc(NC(=O)OCc2ccc(Cl)cc2)n1 | 7.08 µM [falling, partial curve] | 
16 | COc1ccc2cc(CN(CC3COCCO3)S(=O)(=O)c3ccc(Cl)cc3)c(=O)[nH]c2c1 (configuration not stated) | 10 µM [rising, partial curve, poor fit] | 
17 | CCn1c(SC(C)C(=O)O)nnc1-c1cccnc1 (configuration not stated) | 2.06 µM [rising, partial curve] | 
18 | Cc1ccccc1C(OCC(O)CN1CCCCC1CCO)c1ccccc1 (configuration not stated) | 11.2 µM [falling, partial curve] | 
19 | O=C(C1=COCCO1)N1CCN(S(=O)(=O)c2cccc(F)c2)CC1 | 0.103 µM [rising, full curve, poor fit] | 
20 | CC(NC(=O)COc1ccccc1)C(c1ccccc1)N1CCN(C)CC1 (configuration not stated) | 0.282 µM [rising, full curve] | 
21 | CN(C(=O)COC(=O)c1ccc2c(c1)OCO2)C1CCCCC1 | 29.1 µM [rising, single point] | 
22 | COc1ccccc1/C=C1\SC(=O)N(CCC(=O)N2CCCCC2CCO)C1=O (configuration not stated) | 11.2 µM [falling, partial curve, poor fit] | 

From entry 9 as far as 10, as listed above:
Row | SMILES | AC50 [1] | AC50 [2]
9 | CC(=O)Oc1oc(-c2ccccc2)nc1/C=N/c1ccccn1 | 7.94 µM [falling, partial curve, poor fit] | 
10 | O=C(O)COc1ccc(/C=C/c2nc3ccc([N+](=O)[O-])cc3s2)cc1 | 0.316 µM [falling, full curve] | 

Additional results follow.

Row | SMILES | AC50 [1] | AC50 [2]
23 | COc1ccccc1/C=N/NC(=O)C(=O)Nc1ccccc1OC(F)(F)C(F)F | 16.4 µM [falling, partial curve] | 
24 | COc1ccccc1N(CC(=O)Nc1ccc(C)cc1Cl)S(=O)(=O)c1cccs1 | 29.1 µM [falling, single point] | 
25 | CCOc1ccccc1C1C(C(=O)Nc2ccccc2OC)=C(C)Nc2nc(CCCO)nn21 (configuration not stated) | 29.1 µM [rising, single point] | 
26 | CCOC(=O)NC(CC(=O)O)c1ccc(OC)c(OC)c1 (configuration not stated) | 6.51 µM [rising, partial curve, poor fit] | 
27 | C=CCOC(=O)CC(NC(=O)c1ccccc1)c1ccccc1 (configuration not stated) | 17.8 µM [rising, single point] | 
28 | CC(=O)NC(Cc1c[nH]c2ccccc12)C(=O)OCC(=O)Nc1ccc2c(c1)OCO2 (configuration not stated) | 35.5 µM [rising, single point] | 
29 | CCCn1c(=S)[nH]c2ccccc2c1=O | 10 µM [rising, partial curve] | 
30 | COc1ccccc1C(=O)Nc1nc2cc3c(cc2s1)OCCO3 | 14.1 µM [falling, partial curve, poor fit] | 
31 | Cn1cc(S(=O)(=O)NC2CCCC2)c(=O)n(C)c1=O | 6.51 µM [rising, single point] | 
32 | Cc1cccc(OCCCN2C(=O)C(=O)c3cc(C)ccc32)c1 | 12.6 µM [rising, partial curve] | 12.6 µM [falling, partial curve]
33 | COc1ccc(/C=N/NC(=O)c2ccc(Br)cc2)cc1Cn1cc(Cl)cn1 | 3.26 µM [falling, full curve] | 
34 | O=C(CCOc1ccccc1)Nc1ccc([N+](=O)[O-])cc1 | 3.16 µM [rising, partial curve, poor fit] | 
35 | COc1cc(NC(=O)CCS(=O)(=O)c2nc(-c3cccs3)cc(C(F)(F)F)n2)cc(OC)c1OC | 11.6 µM [falling, partial curve] | 10.3 µM [rising, partial curve, poor fit]
36 | COc1cc(/C=C2/SC(=S)N(Cc3ccccc3)C2=O)ccc1OCC(=O)O | 10 µM [rising, partial curve, poor fit] | 
37 | O=C(CSc1nnc(COc2ccc(Cl)cc2)o1)NC1CC2CCC1C2 (configuration not stated) | 35.5 µM [falling, single point] | 
38 | Cc1c(NS(=O)(=O)c2ccc(NCC3CCCO3)c([N+](=O)[O-])c2)c(=O)n(-c2ccccc2)n1C (configuration not stated) | 0.112 µM [rising, full curve, poor fit] | 
39 | COc1ccc2nc(N3CCCC(O)C3)c(C#N)cc2c1 (configuration not stated) | 11.2 µM [rising, partial curve, poor fit] | 
40 | C/C(=N\NC(=O)CNC(=O)C(c1ccccc1)c1ccccc1)c1ccccc1 | 0.58 µM [rising, full curve, poor fit] | 
41 | CCOc1ccccc1OC(=O)c1cc2ccccc2oc1=O | 28.2 µM [rising, single point] | 
42 | COc1ccc(C/C(N)=N/OC(=O)c2cccs2)cc1 | 20 µM [rising, partial curve, poor fit] | 
43 | CCCC(=O)N/C(N)=N/c1nc(C)c2cc(C)ccc2n1 | 3.55 µM [falling, full curve] | 
44 | COC(=O)C1CCN(CC(=O)Nc2ccc(OC)c(Cl)c2)CC1 | 35.5 µM [rising, single point] | 

Row | SMILES | AC50 [1] | AC50 [2]
45 | Cn1cc(CN2CCc3sccc3C2)c(-c2ccccc2F)n1 | 3.55 µM [rising, full curve, poor fit] | 
46 | CCc1nc(C)cn1S(=O)(=O)c1cc(Cl)c(OC)cc1Cl | 6.31 µM [falling, single point] | 
47 | COc1ccc(S(=O)(=O)N2CCOC23CCN(S(=O)(=O)c2ccccc2)CC3)cc1 | 0.00461 µM [rising, full curve, poor fit] | 
48 | O=C(CSC(=S)N1CCOCC1)c1cc2ccccc2oc1=O | 2.82 µM [falling, partial curve] | 
49 | CC(OC(=O)c1ccc(S(=O)(=O)N2CCCCC2)cc1)C(=O)Nc1ccc(C(N)=O)cc1 (configuration not stated) | 29.1 µM [rising, single point] | 
50 | O=C(C1CCCO1)N1CCN(C(=S)Nc2cc(F)cc(F)c2)CC1 (configuration not stated) | 22.4 µM [falling, partial curve, poor fit] | 
51 | CCCCOc1ccc(C)cc1CN(CCO)CCO | 18.4 µM [rising, single point] | 
52 | O=C(CSc1nnc(-c2ccccn2)o1)Nc1cccc(Cl)c1 | 8.91 µM [falling, partial curve] | 
53 | CN(C)C(=O)CSc1nnc(CCN)o1 | 20 µM [rising, partial curve, poor fit] | 
54 | COc1ccc(-c2nnc(NC(=O)CSc3ccc(C)cc3)s2)cc1OC | 7.31 µM [rising, partial curve, poor fit] | 
55 | Cc1cc(C(=O)Nc2ncc(C)s2)c2ccccc2n1 | 25.1 µM [falling, partial curve, poor fit] | 
56 | O=CN(/C=C1\Sc2ccccc2C1=O)Cc1ccccc1 | 11.6 µM [falling, partial curve] | 
57 | O=[N+]([O-])c1cc(Cl)ccc1NCCNS(=O)(=O)c1ccccc1 | 2.31 µM [rising, full curve, poor fit] | 
58 | CC(=O)NC12CC3CC(C1)CC(C(=O)N(C)Cc1cccc(Cl)c1Cl)(C3)C2 | 0.794 µM [falling, partial curve, poor fit] | 
59 | COc1ccc(-c2csc(N3C(=O)CNC3=S)n2)cc1 | 0.411 µM [rising, full curve, poor fit] | 
60 | CCCNC(=O)NC(=O)CSc1nnc(-c2c[nH]c3ccccc23)o1 | 25.1 µM [falling, partial curve, poor fit] | 
61 | O=C(Nc1ccc(N2CCN(C(=O)c3ccccc3F)CC2)cc1)c1ncn[nH]1 | 20 µM [falling, single point] | 
62 | O=C(CCN1C(=O)c2ccccc2S1(=O)=O)Nc1ccccc1F | 10 µM [falling, partial curve] | 
63 | CCOc1ccc(/C=N/O)cc1 | 18.4 µM [rising, single point] | 
64 | Oc1c(I)cc(Cl)c2cccnc12 |  | 5.17 µM [falling, partial curve, poor fit]
65 | Nc1ccccc1C(=O)NCC1(c2ccccc2)CCCC1 | 2.24 µM [rising, partial curve, poor fit] | 

Gathered by group: the compounds so far with a cyano group.
Row | SMILES | AC50 [1] | AC50 [2]
1 | COC(=O)CCC(=O)COc1ccccc1C#N | 10 µM [rising, partial curve] | 
39 | COc1ccc2nc(N3CCCC(O)C3)c(C#N)cc2c1 (configuration not stated) | 11.2 µM [rising, partial curve, poor fit] | 
